Reference: the supplement of paper PMC12578635
± gives the standard deviation of the averaged measurements. This is one part of the list. Repeats are few or missing, and single values can be far off.

Tested on: RAW 264.7 macrophages infected with S. aureus JE2-lux
Assay: host macrophage viability (CellTiter-Fluor) relative to DMSO vehicle; higher = more viable host cells
Settings: 10 µM; treatment time 4 h; gentamicin 50 µg/ml

| SMILES | host macrophage viability [%] |
| --- | --- |
| Cc1n[nH]c2c1C(c1ccc(OCc3ccccc3)cc1)C(C#N)=C(N)O2 (stereo not given) | 127 |
| CCOc1cc(/C=N/Nc2ncnc3[nH]cnc23)ccc1O | 118 |
| Cc1ccc(S(=O)(=O)N2CCCc3ccc(NS(=O)(=O)c4ccc(F)cc4C)cc32)cc1 | 101 |
| C=CCc1cccc2cc(C(N)=O)/c(=N\Cc3ccccc3)oc12 | 117 |
| Cc1ccc(-c2noc(CCC(=O)Nc3ccc(CCc4nc5cc(C)ccc5[nH]4)cc3)n2)cc1 | 78.3 |
| CCOC(=O)COc1ccccc1C1CC(c2ccccc2)=NN1C(=O)c1cccs1 (stereo not given) | 108 |
| CC(C)c1ccc2nc3sc(C(=O)NCC4CCCO4)c(N)c3cc2c1 (stereo not given) | 97.2 |
| Cn1c(NC(=O)/C=C\c2ccccc2)cc(=O)n(C)c1=O | 122 |
| CCCc1cc(CNC(=O)c2c(-c3ccncc3)noc2C)on1 | 114 |
| Cc1ccc(-n2c(=O)c3cccnc3n2CC(=O)N2CCCCC2C)cc1 (stereo not given) | 97.1 |
| COc1ccc2c(c1OC)C(=O)OC2Nc1cccc(F)c1 (stereo not given) | 120 |
| CCN1CCN(CC(=O)NC2CCCC2)C(=O)C1=O | 111 |
| Cc1ccccc1-n1c(C)c(C)c2c1ncn1nc(-c3ccccc3O)nc21 | 122 |
| Cn1c(=O)c2c(nc(S)n2Cc2ccc(F)cc2)n(C)c1=O | 107 ± 12 |
| CCN1CCN(c2nc3ncn(CC(=O)NCc4ccccc4Cl)c(=O)c3s2)CC1 | 121 |
| O=C(CSc1nnc2c(n1)-c1cccc3cccc-2c13)Nc1cc(Cl)ccc1Cl | 120 |
| CCc1nc(SCC(=O)NCC2CCCO2)c2c(=O)n(C)c(=O)n(C)c2n1 (stereo not given) | 116 |
| C=CCOc1ccccc1NC(=O)c1ccnc2ccc(Cl)cc12 | 121 |
| CCn1nc(C)c(CCNC(=O)c2cc3c(=O)n(CCOC)ccc3nc2C)c1C | 119 |
| CN1C(=O)N(C(=O)c2ccc(F)cc2F)c2cccnc2N1C | 115 |
| Nn1c(SCc2cccc(Cl)c2)nncc1=O | 109 |
| CCOc1ccccc1Nc1nc(C)nc2c1c(C)c(C)n2-c1ccccc1 | 107 |
| O=C(Nc1cccnc1)C(=O)Nc1cccc2ccccc12 | 102 |
| Cc1ccc(-n2nnc3c(SCC(=O)Nc4ccc(C)c(Cl)c4)ncnc32)cc1 | 104 ± 5.3 |
| COc1ccc(CNC(=O)c2cnc3cc4c(cc3c2O)OCCO4)cc1 | 113 |
| Cc1ccc(CNC(=O)C(C)C2CCN(C(=O)c3cc4ccccc4[nH]3)CC2)cc1 (stereo not given) | 95.6 |
| CC/N=C1\S/C(=C2\C(=O)Nc3ccccc32)C(=O)N1CC | 114 |

| SMILES | host macrophage viability [%] |
| --- | --- |
| CC(=O)Nc1cc(-c2noc(-c3ccsc3)n2)ccc1-n1ccnc1 | 82.5 |
| COc1ccccc1-c1cc(C(=O)NCc2ccccc2)c2c(-c3ccccc3)[nH]nc2n1 | 126 |
| COc1ccccc1N1CCN(C(=O)Cn2cnc3onc(-c4ccc(C)cc4)c3c2=O)CC1 | 125 |
| Cc1c(C)n(Cc2ccccc2)c2ncn3nc(-c4ccc(Cl)cc4)nc3c12 | 123 |
| COc1cccc(Nc2nc(N)nc(CN3CCc4ccccc4C3)n2)c1 | 81.4 |
| COc1ccc(OC)c2sc(N(Cc3cccnc3)C(=O)C3COc4ccccc4O3)nc12 (stereo not given) | 114 |
| CCn1c(=O)[nH]c(=O)c2cnc(-c3ccc(Cl)cc3)nc21 | 112 |
| O=C(Nc1nc2c(F)cc(F)cc2s1)c1ccc2ccccc2c1 | 123 |
| COC(=O)C(Cc1ccc(O)cc1)NC(=O)CCOc1ccc(OC)cc1 (stereo not given) | 125 |
| COc1ccc2cc(CCNC(=O)CCC3CCCC3)c(=O)[nH]c2c1 | 118 |
| COc1ccc(-n2c(N)cc(=O)nc2SCC(=O)N2CCCc3ccccc32)cc1 | 113 |
| COc1ccc(-c2nnc3c(C(=O)N4CCC(O)(c5ccc(Cl)cc5)CC4)cccn23)cc1 | 122 |
| Cn1cnc2c(C(=O)O)nn(-c3ccccc3)c2c1=O | 92.9 |
| Cc1ccc(C)c(NC(=O)c2cccnc2-c2ccsc2)c1 | 84.6 |
| O=Cc1ccc(OC(=O)CC2SC(=O)NC2=O)cc1 (stereo not given) | 111 |
| O=C(Nc1ccc2oc(-c3ccccc3F)cc(=O)c2c1)c1ccncc1 | 110 |
| Cn1c(SCC(=O)NCCCN2CCOCC2)nc2ccccc2c1=O | 124 |
| COC(=O)c1c(NC(=O)CC2NCCNC2=O)sc2c1CCCC2 (stereo not given) | 127 |
| O=C(COc1ncnc2ccccc12)NC(c1ccccc1)c1cccnc1 (stereo not given) | 125 |
| CCOc1ccc(NC(=O)c2cnc3c(c(C)nn3-c3ccccc3)c2Cl)cc1 | 109 |
| O=C(Nc1cc(Cl)cc(Cl)c1)c1ccc(N2C(=O)CCC2=O)cc1 | 117 |
| O=C(NCCn1cccn1)c1ncoc1-c1ccc(F)cc1 | 121 |
| CCc1nc(-n2nc(C)cc2N)c2c3c(sc2n1)CCC3 | 95.4 |
| Cc1ccccc1C(=O)/C(C#N)=C1\Nc2ccccc2N1C | 112 |
| CCOC(=O)CCn1c(=O)c2c(nc3n(CCCOC)c(C)c(C)n23)n(C)c1=O | 120 |
| Cc1sc2nc(C)n3c(=O)n(CC(=O)N4CCOCC4)nc3c2c1C | 98.5 |
| COCCCn1c(SCC(=O)Nc2ccccc2C(=O)OC)nc2c(sc3ccccc32)c1=O | 112 |

| SMILES | host macrophage viability [%] |
| --- | --- |
| Cc1oc(-c2ccno2)cc1S(=O)(=O)NC(C)CCc1ccccc1 (stereo not given) | 98 |
| O=C(Nc1cccc(-c2nnc(-c3ccccc3)o2)c1)Nc1ccc2c(c1)OCCO2 | 106 |
| CCc1ccc2oc(C(=O)Nc3nc(-c4ccc(C)s4)ns3)cc(=O)c2c1 | 113 |
| Cc1oc2ncnc(OCC(=O)Nc3ccc(S(N)(=O)=O)cc3)c2c1C | 108 |
| N#C/C(=C\c1ccc(-c2cccc(Cl)c2)o1)c1nc2ccccc2c(=O)[nH]1 | 128 |
| COc1ccc(NC(=S)N2CCC(NC(=O)c3ccccc3)CC2)c(OC)c1 | 106 |
| CCN(C(=O)CSc1nccnc1N1CCN(c2ccccc2)CC1)c1ccccc1 | 105 |
| CC(=O)c1cccc(N/C=C(\C#N)c2nc(-c3ccc(F)cc3)cs2)c1 | 128 |
| Cc1nc(-c2csc(S(=O)(=O)Nc3ccc(C)c(Cl)c3)c2)no1 | 105 |
| Cc1cccc(N2CCN(S(=O)(=O)c3cc(-c4nc(C)cs4)cs3)CC2C)c1 (stereo not given) | 81.4 |
| COc1ccc(-n2ccn3c(CCC(=O)NCC4CCCO4)nnc3c2=O)cc1 (stereo not given) | 131 |
| Cc1ccccc1-c1nnc2ccc(N3CCC(C(=O)NCCN(C)C)CC3)nn12 | 122 |
| CN1Cc2ccccc2CC1C(=O)N1CCC2(CC1)NC(=O)c1ccccc1O2 (stereo not given) | 108 |
| O=C(O)CCC(=O)Nc1ccc(Cl)cc1-c1nc2ccccc2[nH]c1=O | 114 |
| COc1cc(/C=C(\C#N)c2nc(-c3ccc([N+](=O)[O-])cc3)cs2)ccc1OC(C)=O | 99.6 |
| Cc1ccc(C)c(NC(=O)c2cnc(N(C)C)nc2C)c1 | 97.3 |
| CC1=CC2=NC(=O)CC(C)(C(=O)NCc3n[nH]c4c3CCCC4)N2C=C1 (stereo not given) | 118 |
| O=C(O)Cc1c(-c2ccccc2)c2cc(Cl)ccc2[nH]c1=O | 128 |
| CCOC(=O)c1sc(NC(=O)CCSc2ccccc2)cc1C | 113 ± 14 |
| Cc1oc(-c2ccno2)cc1S(=O)(=O)N1CCCCC1C (stereo not given) | 114 |
| Cc1cn2c(nc3c2c(=O)n(Cc2c(F)cccc2Cl)c(=O)n3C)o1 | 118 |
| Cn1c(=O)n(CC(=O)N2CCCC2)c(=O)c2cc(S(=O)(=O)NCCC3=CCCCC3)ccc21 | 86 |
| O=C(Nc1ccc(F)cc1F)c1ccc(SCCN2CCOCC2)nc1 | 110 |
| O=C(Cc1ccccc1)Nc1nc(-c2nc3ccccc3s2)cs1 | 112 ± 13 |
| Cc1ccc2nc(-c3ccc(F)cc3)nc(SCC(=O)N3CCOCC3)c2c1 | 115 |
| Cc1ccc(-c2nc(SCC(=O)NCc3ccco3)c3ccccc3n2)cc1 | 115 |
| COc1ccc(NC(=O)Nc2nc3cc(C)c(C)cc3s2)cc1 | 101 |

Entries shown so far with a cyano group (five):

| SMILES | host macrophage viability [%] |
| --- | --- |
| Cc1n[nH]c2c1C(c1ccc(OCc3ccccc3)cc1)C(C#N)=C(N)O2 (stereo not given) | 127 |
| Cc1ccccc1C(=O)/C(C#N)=C1\Nc2ccccc2N1C | 112 |
| N#C/C(=C\c1ccc(-c2cccc(Cl)c2)o1)c1nc2ccccc2c(=O)[nH]1 | 128 |
| CC(=O)c1cccc(N/C=C(\C#N)c2nc(-c3ccc(F)cc3)cs2)c1 | 128 |
| COc1cc(/C=C(\C#N)c2nc(-c3ccc([N+](=O)[O-])cc3)cs2)ccc1OC(C)=O | 99.6 |

Additional results:

| SMILES | host macrophage viability [%] |
| --- | --- |
| O=C(NCc1ccc2c(c1)OCO2)c1ccc(Cl)c(S(=O)(=O)N2CCCC2)c1 | 130 |
| Cc1cc(Nc2ccc(N3CCOCC3)cc2)n2nc(Cc3cccc(F)c3)nc2n1 | 114 |
| CC(CCc1ccco1)NC(=O)Nc1cccc2ccccc12 (stereo not given) | 106 |
| CSc1nc2ccc3nc(NC(=O)c4ccccc4C)sc3c2s1 | 117 ± 4.3 |
| CCN1CCN(c2nc3ncn(CC(=O)Nc4ccc5c(c4)OCO5)c(=O)c3s2)CC1 | 111 |
| CCS(=O)(=O)c1ccc(CC(=O)Nc2nc3ccc(F)cc3s2)cc1 | 112 |
| Cc1c(NC(=O)c2cccc(Cl)c2)c(-n2cnnc2)nn1C | 99.1 |
| CCOc1ccc(NC(=O)COc2cccc3c2CCN(Cc2ccc(F)cc2)C3=O)cc1 | 130 |
| COc1cccc2c(=O)n(CC(=O)Nc3ccccc3C(F)(F)F)ccc12 | 112 |
| COc1cc(C(C)=O)ccc1Oc1ncnc(N)c1[N+](=O)[O-] | 125 |
| C=CCOc1ccccc1NC(=O)Cn1nc(C(F)(F)F)c2c1CCCC2 | 113 |
| Cc1c(C(=O)Nc2cccc(Cl)c2)sc2nc3n(c(=O)c12)N=C(c1ccc(O)c(O)c1)CS3 | 109 |
| Cc1c(Cc2ccc3c(c2)OCO3)sc(NC(=O)c2nc3ccccc3s2)c1C#N | 127 |
| O=C(CSc1nnc2ncccn12)Nc1cccc2ccccc12 | 107 |
| Cc1cc(-n2c(C)nc3ccccc3c2=O)ccc1NC(=O)c1cncc(Br)c1 | 111 |
| O=C(CC1CCCC1)NCCn1nc(-c2cccs2)oc1=O | 120 |
| O=[N+]([O-])c1ccc(S(=O)(=O)N2CCN=C2SCc2cccnc2)cc1 | 116 |
| COc1ccc(-c2cc3nc(C)cc(N4CCN(c5nc(C)cc(C)n5)CC4)n3n2)cc1OC | 101 |
| CCN(CC)S(=O)(=O)c1ccc(-c2nnc(SC(C)C(=O)OC)o2)cc1 (stereo not given) | 122 |
| CCOC(=O)c1nn(-c2ccccc2)c(=O)cc1NCc1ccccn1 | 121 |
| CC1(C)COc2ccc(NC(=O)COc3ccc(F)cc3)cc2NC1=O | 117 |
| NC(=O)c1c(NC(=O)c2cc3c(ccc4ccccc43)oc2=O)sc2c1CCCCC2 | 113 ± 6.7 |
| COc1ccc(CNC(=O)c2c(C)oc3c2C(=O)c2ccccc2C3=O)cc1 | 102 |
| O=c1oc2ccccc2cc1-c1csc(-c2cc3cccc([N+](=O)[O-])c3oc2=O)n1 | 127 |

2 records picked at random from those above:

| SMILES | host macrophage viability [%] |
| --- | --- |
| Cc1cc(-n2c(C)nc3ccccc3c2=O)ccc1NC(=O)c1cncc(Br)c1 | 111 |
| CC(CCc1ccco1)NC(=O)Nc1cccc2ccccc12 (stereo not given) | 106 |
